Values from PubChem BioAssay AID1053208 (Peter MacCallum Cancer Centre, 2014).

Purpose: 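Genes whose silencing cuts survival of bone tumour cells only with doxorubicin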 (primary screen)
Cell system: mouse osteosarcoma cells, early-passage culture from an engineered mouse model of fibroblastic bone tumour
Knock-down reagent: siRNA pool against mouse genes, 40 nM
Time to read-out: about 120 h (48 h before drug, then 72 h with drug)
Conditions: doxorubicin 100 nM for 72 h, roughly 30-40% inhibitory dose
Detection: 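Viability read as ATP luminescence after 72 h of 100 nM doxorubicin or none, duplicate wells averaged, scaled to non-targeting siRNA, then expressed as robust z-scores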
Direction: viability z-score with doxorubicin: higher = more viable cells under doxorubicin; viability z-score without drug: higher = more viable cells with knock-down alone
Rule for the call: 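Called active if knock-down leaves viability unchanged without drug (z within -2 to 2) but lowers it with doxorubicin (z at or under -2)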
The whole screen tested about 17,000 reagents; below is a part drawn at random. 788 of them (4.7%) count as active. 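Calls rest on z-score classes alone; an extra cut-off of viability at most 70% of control was not applied to them.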 A number with no mark means an inactive call. Reagents against one gene are numbered here. Further read-outs or replicates are left out here.

Silencing of Ephb1 (Eph receptor B1) gave: combined z-score class no change with or without drug; viability z-score with doxorubicin 0; viability z-score without drug -1.18.
Wbp4 (WW domain binding protein 4) gave combined z-score class high cell count with and without drug; viability z-score with doxorubicin 2.36; viability z-score without drug 2.87.
After knock-down of Pdzk1 (PDZ domain containing 1) the results were combined z-score class no change with or without drug; viability z-score with doxorubicin -0.34; viability z-score without drug 0.17.
Against Myl6b (myosin, light polypeptide 6B) the deposit lists combined z-score class high cell count without drug only; viability z-score with doxorubicin 1.01; viability z-score without drug 2.19.
Arpc1b (actin related protein 2/3 complex, subunit 1B) scored combined z-score class no change with or without drug; viability z-score with doxorubicin 0.22; viability z-score without drug 0.34.
Against Tbc1d16 (TBC1 domain family, member 16), the entry reads combined z-score class high cell count with doxorubicin only; viability z-score with doxorubicin 2.02; viability z-score without drug 1.18.
Knock-down of Rgs19 (regulator of G-protein signaling 19) came out at: combined z-score class no change with or without drug; viability z-score with doxorubicin 0.34; viability z-score without drug -1.35.
After knock-down of Nox1 (NADPH oxidase 1), the screen gave combined z-score class no change with or without drug; viability z-score with doxorubicin -1.01; viability z-score without drug -0.84.
Against Ugcg (UDP-glucose ceramide glucosyltransferase), the values are combined z-score class no change with or without drug; viability z-score with doxorubicin 0.45; viability z-score without drug -0.84.
Spata24 (spermatogenesis associated 24) gave combined z-score class no change with or without drug; viability z-score with doxorubicin 1.12; viability z-score without drug 0.84.
After knock-down of Tmem131 (transmembrane protein 131), the screen gave combined z-score class no change with or without drug; viability z-score with doxorubicin 1.12; viability z-score without drug 0.51.
Reg3g (regenerating islet-derived 3 gamma) gave combined z-score class no change with or without drug; viability z-score with doxorubicin 0.34; viability z-score without drug -0.84.
Against Gar1 (GAR1 ribonucleoprotein), the values are combined z-score class low cell count without drug only; viability z-score with doxorubicin -0.11; viability z-score without drug -2.36.
Against Sgip1 (SH3-domain GRB2-like (endophilin) interacting protein 1), the values are combined z-score class no change with or without drug; viability z-score with doxorubicin 0.11; viability z-score without drug -0.51.
For Farp2 (FERM, RhoGEF and pleckstrin domain protein 2) the deposit lists combined z-score class no change with or without drug; viability z-score with doxorubicin -1.35; viability z-score without drug -0.51.
After knock-down of 9830132L24, the screen gave combined z-score class no change with or without drug; viability z-score with doxorubicin -0.45; viability z-score without drug -0.84.
With knock-down of Rilpl1 (Rab interacting lysosomal protein-like 1) the results were combined z-score class no change with or without drug; viability z-score with doxorubicin 0.34; viability z-score without drug 0.17.
With knock-down of Ap4b1 (adaptor-related protein complex AP-4, beta 1) #1 the results were combined z-score class no change with or without drug; viability z-score with doxorubicin -1.12; viability z-score without drug 0.
Depletion of Ap4b1 (adaptor-related protein complex AP-4, beta 1) #2 came out at: combined z-score class no change with or without drug; viability z-score with doxorubicin 0.45; viability z-score without drug 1.18.
After knock-down of Zbtb22 (zinc finger and BTB domain containing 22), the record shows combined z-score class no change with or without drug; viability z-score with doxorubicin -0.67; viability z-score without drug 1.85.
Knock-down of Ckm (creatine kinase, muscle) came out at: combined z-score class no change with or without drug; viability z-score with doxorubicin 0.45; viability z-score without drug -1.18.
For Tgfbr1 (transforming growth factor, beta receptor I), the entry reads combined z-score class low cell count without drug only; viability z-score with doxorubicin -1.12; viability z-score without drug -2.02.
Utp3 (UTP3 small subunit processome component) gave combined z-score class no change with or without drug; viability z-score with doxorubicin 0.45; viability z-score without drug 0.17.
After knock-down of Ugt2b35 (UDP glucuronosyltransferase 2 family, polypeptide B35), the screen gave combined z-score class no change with or without drug; viability z-score with doxorubicin -1.91; viability z-score without drug -0.51.
Knock-down of Lce1a2 (late cornified envelope 1A2) came out at: combined z-score class high cell count with and without drug; viability z-score with doxorubicin 3.48; viability z-score without drug 2.02.
Depletion of Ugt2b34 (UDP glucuronosyltransferase 2 family, polypeptide B34) gave: combined z-score class no change with or without drug; viability z-score with doxorubicin 0.11; viability z-score without drug 1.69.
Knock-down of Uts2r (urotensin 2 receptor) resulted in: combined z-score class no change with or without drug; viability z-score with doxorubicin 0; viability z-score without drug 0.51.
Against Gspt2 (G1 to S phase transition 2), the entry reads combined z-score class no change with or without drug; viability z-score with doxorubicin -1.12; viability z-score without drug -0.34.
Depletion of Tmem45b (transmembrane protein 45b) resulted in: combined z-score class no change with or without drug; viability z-score with doxorubicin 0.45; viability z-score without drug 0.34.
Knock-down of Appbp2 (amyloid beta precursor protein binding protein 2) came out at: combined z-score class no change with or without drug; viability z-score with doxorubicin 0.34; viability z-score without drug -1.35.
Silencing of Epb42 (erythrocyte membrane protein band 4.2) gave: combined z-score class no change with or without drug; viability z-score with doxorubicin -1.12; viability z-score without drug -0.51.
For C1s2 (complement component 1, s subcomponent 2), the values are combined z-score class no change with or without drug; viability z-score with doxorubicin 1.69; viability z-score without drug 0.84.
After knock-down of Or51a39 (olfactory receptor family 51 subfamily A member 39), the record shows combined z-score class no change with or without drug; viability z-score with doxorubicin -0.34; viability z-score without drug -0.84.
With knock-down of Prmt8 (protein arginine N-methyltransferase 8) the results were combined z-score class no change with or without drug; viability z-score with doxorubicin 0.34; viability z-score without drug -0.17.
Or5k1b (olfactory receptor family 5 subfamily K member 1B) scored combined z-score class no change with or without drug; viability z-score with doxorubicin 0.11; viability z-score without drug 1.69.
Zfyve27 (zinc finger, FYVE domain containing 27) scored combined z-score class no change with or without drug; viability z-score with doxorubicin -1.12; viability z-score without drug 1.01.

No new results follow: 3 of the entries above.
Utp3 (UTP3 small subunit processome component): combined z-score class = no change with or without drug; viability z-score with doxorubicin = 0.45; viability z-score without drug = 0.17
Ugt2b35 (UDP glucuronosyltransferase 2 family, polypeptide B35): combined z-score class = no change with or without drug; viability z-score with doxorubicin = -1.91; viability z-score without drug = -0.51
Lce1a2 (late cornified envelope 1A2): combined z-score class = high cell count with and without drug; viability z-score with doxorubicin = 3.48; viability z-score without drug = 2.02
